Laboratory results as given in PubChem BioAssay AID2685 (National Center for Advancing Translational Sciences (NCATS), 2010).
The list shows a part of the results. Further columns of the screen follow, without active or inactive calls. The list favours compounds with an active or inconclusive main result. Potencies come from curve fits of mixed quality, noted in brackets.

Experiment: qHTS Assay for Lipid Storage Modulators in Drosophila S3 Cells;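 on cell number change: cells counted by Cell Tracker Red CMTPX staining in the red channel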
Details: BODIPY lipid droplet fluorescence, 18-24 h; for cell number change: measured here: cell count max response, cells fed with added oleic acid
Method in brief: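 Drosophila S3 cells loaded with oleic acid (400 uM, as added) and compounds at several concentrations; lipid droplets imaged by 488-nm laser-scanning cytometry, 500–530 nm intensity and object ratio to cell channel. Percent activity normalized to 20 uM Triacsin C.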

[1] = measured here: cell number channel AC50, cells fed with added oleic acid
[2] = measured here: lipid fluorescence (Fed channel) AC50, cells fed with added oleic acid

Compound | cell number change | AC50 [1] | AC50 [2]
Cc1ccc(-c2cnn(-c3cccc(C(F)(F)F)c3)c2N)cc1 | 104% | 20.6 µM [rising, single point] | 29.1 µM [rising, partial curve]
Cc1cc(/C=C2\SC(=S)NC2=O)cc(C)c1O | 1.66% |  | 11.6 µM [falling, partial curve]
O=C(NC1CCCc2ccccc21)C1CCN(c2nnc(-n3cccc3)s2)CC1 (stereo not given) |  | 1.84 µM [rising, partial curve] | 1.84 µM [rising, partial curve]
CCCCC(=O)NC(=S)Nc1ccc(Cl)c(C(=O)O)c1 | 30.6% | 29.1 µM [rising, partial curve] | 
CC(C)(C)c1ccc(C(=O)NC(CC(=O)O)c2ccc(OC3CCCC3)cc2)cc1 (stereo not given) | 13.1% |  | 23.1 µM [falling, single point]
CC1=NC(C)(C)Cc2cc(C)c(C)cc21 | 3.84% |  | 0.116 µM [falling, full curve, poor fit]
CCOc1ccc2oc(C(=O)OCC(=O)NCc3ccc(OC)cc3)c(C)c2c1 | -40.8% | 29.1 µM [falling, single point] | 
CCOC(=O)c1ccc(NC(=O)CCC2COc3ccccc3O2)cc1 (stereo not given) | 8.71% |  | 8.2 µM [rising, partial curve, poor fit]
O=C(NCc1ccc(F)cc1)C(c1ccccc1)c1ccccc1 | 20.7% |  | 4.11 µM [falling, partial curve, poor fit]
CCOc1ccc(NC(=O)C2C3CCC4C(CCC32)C4(Cl)Cl)cc1 (stereo not given) | 14.8% |  | 
Cn1c(-c2ccccc2)cnc1NCc1cc2c(cc1[N+](=O)[O-])OCO2 |  | 6.51 µM [rising, single point] | 0.58 µM [rising, full curve]
Cc1cc(C)c(S(=O)(=O)NC2CC(C)(C)NC(C)(C)C2)cc1C | 35.4% | 0.00517 µM [rising, full curve, poor fit] | 29.1 µM [rising, single point]
CCCN(C(=O)c1cc(-c2ccco2)nc2ccccc12)c1c(N)n(Cc2ccccc2)c(=O)[nH]c1=O | 45.3% | 7.31 µM [rising, partial curve, poor fit] | 7.31 µM [rising, partial curve]
COc1ccc(N2C(=O)c3ccc(C(=O)Nc4cc(OC)ccc4OC)cc3C2=O)cc1 | 12.5% |  | 
CCOc1cc(/C=N\NC(=O)c2ccc(NC(=O)C(C)(C)C)cc2)ccc1OC(=O)c1cccc(C)c1 | 7.55% |  | 0.0651 µM [falling, full curve, poor fit]
COc1cnc(SCCC(F)=C(F)F)[nH]c1=O | 21.5% | 2.91 µM [falling, single point] | 
CC(CCc1ccccc1)NC(=O)CNC(=O)COc1ccccc1 (stereo not given) |  |  | 0.058 µM [falling, partial curve, poor fit]
Cc1cc2oc(=O)cc(CN(C)Cc3ccc(OC(F)F)cc3)c2cc1Cl |  |  | 0.206 µM [rising, single point]
COc1ccc(-c2nnc(SCC(=O)Nc3nc4ccccc4s3)n2C)cc1 | -5.01% |  | 
N/C(=N\OC(=O)Cc1cccs1)c1ccc(Br)cc1 | -50% | 0.651 µM [falling, partial curve, poor fit] | 

Compound | cell number change | AC50 [1] | AC50 [2]
COc1ccc(/C=C/C(=O)c2cc(Br)ccc(=O)c2O)cc1 | -17.8% |  | 58 µM [falling, single point]
COc1ccc(OC)c(NC(=O)C2CCC(CNc3c(N4CCOCC4)c(=O)c3=O)CC2)c1 (stereo not given) | 40.5% | 2.91 µM [rising, full curve] | 1.3 µM [rising, full curve]
Nc1nonc1C(=O)N/N=C/c1cc2c(cc1[N+](=O)[O-])OCO2 | 20.5% |  | 0.206 µM [falling, full curve]
NC(=O)C1CCCN1 (stereo not given) | -21.4% |  | 18.4 µM [falling, partial curve, poor fit]
CC(C)CNC(=O)COC(=O)/C=C/c1ccccc1[N+](=O)[O-] | -0.353% |  | 0.92 µM [falling, full curve]
CC1Cc2ccccc2N1C(=O)CSc1nc2ccccc2o1 (stereo not given) | 13.7% |  | 18.4 µM [rising, partial curve, poor fit]
COCCCn1c(SCC(=O)NC2CCCCC2)nnc1-c1ccco1 | -2.63% |  | 
C=CCNC(NC(=O)c1ccccc1)(C(=O)OCC)C(F)(F)F (stereo not given) | -31% | 25.9 µM [falling, partial curve, poor fit] | 32.6 µM [falling, partial curve]
CC(Oc1ccc(F)cc1)C(=O)Nc1ccc2ccccc2c1 (stereo not given) | -21.4% |  | 
COc1ccc(/C=C/c2nc(S(=O)(=O)c3ccccc3)c(NCCCN(C)C)o2)cc1OC | -13.4% |  | 2.59 µM [rising, partial curve]
NC(=O)c1c(NC(=O)Cc2cccs2)sc2c1CCC2 | 4.8% | 2.31 µM [rising, partial curve] | 3.26 µM [rising, partial curve]
O=C(CSc1nnc(-c2ccco2)o1)c1ccc([N+](=O)[O-])cc1 | 59.5% | 20.6 µM [rising, single point] | 0.58 µM [rising, single point]
CN(C)c1ccc(-c2nnc(-c3ccc(S(=O)(=O)C(F)F)cc3)o2)cc1 | 18.2% |  | 1.84 µM [rising, partial curve]
COc1ccc(S(=O)(=O)NCCS(=O)(=O)N2CCN(c3ccccc3)CC2)cc1 | 28.2% |  | 23.1 µM [rising, single point]
COc1ccc2ccccc2c1/C=N/Nc1ccc(Cl)c(C(=O)O)c1 | 1.21% |  | 2.31 µM [rising, full curve]
O=C(Nc1ccccc1)c1ccccc1CC[N+](=O)[O-] | 23.9% |  | 
COc1ccc(NC(=O)CSc2nccn2Cc2ccc(F)cc2)cc1 | 18.1% |  | 6.51 µM [rising, partial curve, poor fit]
COc1ccc(CCNC(=O)c2cc([N+](=O)[O-])ccc2N2CCOCC2)cc1 | 15.5% | 1.84 µM [rising, partial curve] | 
Cc1cc(-c2c(C)n([O-])c(C)c(C)[n+]2=O)ccc1F | 1.03% |  | 2.31 µM [rising, partial curve]
Cc1ccnc(NC(=O)c2cc(S(=O)(=O)N3CCCCC3)ccc2Cl)c1 | -0.233% |  | 

By substructure, the compounds so far with a Cl atom (5)
Compound | cell number change | AC50 [1] | AC50 [2]
CCCCC(=O)NC(=S)Nc1ccc(Cl)c(C(=O)O)c1 | 30.6% | 29.1 µM [rising, partial curve] | 
CCOc1ccc(NC(=O)C2C3CCC4C(CCC32)C4(Cl)Cl)cc1 (stereo not given) | 14.8% |  | 
Cc1cc2oc(=O)cc(CN(C)Cc3ccc(OC(F)F)cc3)c2cc1Cl |  |  | 0.206 µM [rising, single point]
COc1ccc2ccccc2c1/C=N/Nc1ccc(Cl)c(C(=O)O)c1 | 1.21% |  | 2.31 µM [rising, full curve]
Cc1ccnc(NC(=O)c2cc(S(=O)(=O)N3CCCCC3)ccc2Cl)c1 | -0.233% |  | 

Continued.

Compound | cell number change | AC50 [1] | AC50 [2]
Cc1ccc(SCC(=O)OCC(=O)NC2CCCCCC2)cc1 | 10.9% |  | 18.4 µM [falling, single point]
CCCCNC(=O)CSc1nc(Cc2ccccc2)nc2ccccc12 | -13.6% |  | 0.13 µM [rising, partial curve, poor fit]
CCOC(=O)Nc1ccc(C)cc1C | 2.06% |  | 
COc1cccc(CNC(=O)CN2C(=O)c3ccccc3S2(=O)=O)c1 | -59.4% | 29.1 µM [falling, single point] | 
O=C(C[n+]1ccc(C(=O)c2ccccc2)cc1)Nc1ccc(C(F)(F)F)cc1 | 15.4% |  | 
Cc1cc(C(=O)Nc2ccc(S(=O)(=O)N3CCOCC3)cc2)ccc1[N+](=O)[O-] | -30.7% | 11.6 µM [falling, single point] | 
CC(C)(C)c1ccc(C(=O)NC(=S)Nc2sc3c(c2C#N)CCC3)cc1 | 21.5% |  | 0.92 µM [rising, full curve]
COc1cccc(C(=O)Nc2cccc(OCC(=O)O)c2)c1 | -36.5% | 1.3 µM [falling, full curve] | 1.03 µM [falling, full curve]
CCc1nc2ccc(C(=O)Nc3nnc(C)s3)cc2nc1CC | 17.7% | 1.16 µM [rising, single point] | 
CCOc1ccc(-c2cc(C(=O)N/N=C/c3cccnc3)c3ccccc3n2)cc1 | 22.9% |  | 16.4 µM [falling, single point]
Nn1cc(-c2ccccc2)nc1SCC(=O)N1CCN(S(=O)(=O)c2ccccc2)CC1 |  | 1.84 µM [rising, partial curve] | 1.84 µM [rising, partial curve]
CN1CCN(CCCCC(=O)c2ccccc2)CC1 | -13.9% |  | 5.8 µM [falling, partial curve, poor fit]
Cc1cc(C)cc(N(CC(=O)NC2CCCC2)C(=O)CCC(=O)Nc2cc(C)ccn2)c1 | 1.32% |  | 
COc1ccc(C)cc1NC(=O)CCc1ccc(S(=O)(=O)N2CCOCC2)cc1 | -1.88% |  | 29.1 µM [falling, single point]
Cc1ccccc1NC1=C/C(=N\S(=O)(=O)c2ccc(C(=O)O)cc2)c2ccccc2C1=O | -29.5% |  | 6.51 µM [rising, single point]
CCCC1(C(=O)OCC)NC(c2cc(OC)c(OC)c(OC)c2)C2C(=O)N(CC)C(=O)C21 (stereo not given) | 20.6% |  | 7.31 µM [falling, single point]
CCOP(=O)(OCC)c1nc(-c2ccc(OC)cc2)oc1N1CCOCC1 | -0.425% |  | 0.731 µM [falling, full curve, poor fit]
NC(=O)CS(=O)(=O)c1nc2ccccc2n1Cc1ccccc1F | 100% | 29.1 µM [rising, single point] | 18.4 µM [rising, single point]
Cc1ccc(C(=O)NCc2ccc(F)cc2)cc1NC1=NC2CS(=O)(=O)CC2S1 (stereo not given) | 5.69% |  | 
O=[N+]([O-])c1ccc(N/N=C\c2ccccc2OCc2ccccc2)cc1 |  |  | 0.651 µM [rising, full curve]
